These are yes or no findings as the source states them, for the method shown. In cells and extracts the contact can be indirect. Some entries that bind do so weakly or less than the wild type. For some assays here: Sequences can lack the tags named with a protein. Blank lines part the entries; values can stand above or below the molecule they belong to.
What was measured:
[1] = target: phosphatidylinositol 3,4,5-trisphosphate Rac exchange factor 2 (PREX2) (UniProt Q70Z35); experiment: co-IP
[2] = target: phosphatidylinositol 3,4,5-trisphosphate Rac exchange factor 2 (PREX2) (UniProt Q70Z35); experiment: co-IP with and without co-expressed GNMT
[3] = target: T1, His-Myc-tagged PDZ domains of PREX2 (UniProt Q70Z35); experiment: in vitro pull-down with purified proteins
T1 sequence (looked up): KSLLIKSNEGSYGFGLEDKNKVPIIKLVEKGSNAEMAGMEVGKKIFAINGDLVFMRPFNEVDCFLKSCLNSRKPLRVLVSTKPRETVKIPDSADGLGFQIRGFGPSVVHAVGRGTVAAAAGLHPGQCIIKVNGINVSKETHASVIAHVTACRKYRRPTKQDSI

Sequences of proteins named here, by UniProt entry; tags and fusion partners are left off. A change or cut given only in a name is not applied to a line headed by its entry.
UniProt Q7TMY8: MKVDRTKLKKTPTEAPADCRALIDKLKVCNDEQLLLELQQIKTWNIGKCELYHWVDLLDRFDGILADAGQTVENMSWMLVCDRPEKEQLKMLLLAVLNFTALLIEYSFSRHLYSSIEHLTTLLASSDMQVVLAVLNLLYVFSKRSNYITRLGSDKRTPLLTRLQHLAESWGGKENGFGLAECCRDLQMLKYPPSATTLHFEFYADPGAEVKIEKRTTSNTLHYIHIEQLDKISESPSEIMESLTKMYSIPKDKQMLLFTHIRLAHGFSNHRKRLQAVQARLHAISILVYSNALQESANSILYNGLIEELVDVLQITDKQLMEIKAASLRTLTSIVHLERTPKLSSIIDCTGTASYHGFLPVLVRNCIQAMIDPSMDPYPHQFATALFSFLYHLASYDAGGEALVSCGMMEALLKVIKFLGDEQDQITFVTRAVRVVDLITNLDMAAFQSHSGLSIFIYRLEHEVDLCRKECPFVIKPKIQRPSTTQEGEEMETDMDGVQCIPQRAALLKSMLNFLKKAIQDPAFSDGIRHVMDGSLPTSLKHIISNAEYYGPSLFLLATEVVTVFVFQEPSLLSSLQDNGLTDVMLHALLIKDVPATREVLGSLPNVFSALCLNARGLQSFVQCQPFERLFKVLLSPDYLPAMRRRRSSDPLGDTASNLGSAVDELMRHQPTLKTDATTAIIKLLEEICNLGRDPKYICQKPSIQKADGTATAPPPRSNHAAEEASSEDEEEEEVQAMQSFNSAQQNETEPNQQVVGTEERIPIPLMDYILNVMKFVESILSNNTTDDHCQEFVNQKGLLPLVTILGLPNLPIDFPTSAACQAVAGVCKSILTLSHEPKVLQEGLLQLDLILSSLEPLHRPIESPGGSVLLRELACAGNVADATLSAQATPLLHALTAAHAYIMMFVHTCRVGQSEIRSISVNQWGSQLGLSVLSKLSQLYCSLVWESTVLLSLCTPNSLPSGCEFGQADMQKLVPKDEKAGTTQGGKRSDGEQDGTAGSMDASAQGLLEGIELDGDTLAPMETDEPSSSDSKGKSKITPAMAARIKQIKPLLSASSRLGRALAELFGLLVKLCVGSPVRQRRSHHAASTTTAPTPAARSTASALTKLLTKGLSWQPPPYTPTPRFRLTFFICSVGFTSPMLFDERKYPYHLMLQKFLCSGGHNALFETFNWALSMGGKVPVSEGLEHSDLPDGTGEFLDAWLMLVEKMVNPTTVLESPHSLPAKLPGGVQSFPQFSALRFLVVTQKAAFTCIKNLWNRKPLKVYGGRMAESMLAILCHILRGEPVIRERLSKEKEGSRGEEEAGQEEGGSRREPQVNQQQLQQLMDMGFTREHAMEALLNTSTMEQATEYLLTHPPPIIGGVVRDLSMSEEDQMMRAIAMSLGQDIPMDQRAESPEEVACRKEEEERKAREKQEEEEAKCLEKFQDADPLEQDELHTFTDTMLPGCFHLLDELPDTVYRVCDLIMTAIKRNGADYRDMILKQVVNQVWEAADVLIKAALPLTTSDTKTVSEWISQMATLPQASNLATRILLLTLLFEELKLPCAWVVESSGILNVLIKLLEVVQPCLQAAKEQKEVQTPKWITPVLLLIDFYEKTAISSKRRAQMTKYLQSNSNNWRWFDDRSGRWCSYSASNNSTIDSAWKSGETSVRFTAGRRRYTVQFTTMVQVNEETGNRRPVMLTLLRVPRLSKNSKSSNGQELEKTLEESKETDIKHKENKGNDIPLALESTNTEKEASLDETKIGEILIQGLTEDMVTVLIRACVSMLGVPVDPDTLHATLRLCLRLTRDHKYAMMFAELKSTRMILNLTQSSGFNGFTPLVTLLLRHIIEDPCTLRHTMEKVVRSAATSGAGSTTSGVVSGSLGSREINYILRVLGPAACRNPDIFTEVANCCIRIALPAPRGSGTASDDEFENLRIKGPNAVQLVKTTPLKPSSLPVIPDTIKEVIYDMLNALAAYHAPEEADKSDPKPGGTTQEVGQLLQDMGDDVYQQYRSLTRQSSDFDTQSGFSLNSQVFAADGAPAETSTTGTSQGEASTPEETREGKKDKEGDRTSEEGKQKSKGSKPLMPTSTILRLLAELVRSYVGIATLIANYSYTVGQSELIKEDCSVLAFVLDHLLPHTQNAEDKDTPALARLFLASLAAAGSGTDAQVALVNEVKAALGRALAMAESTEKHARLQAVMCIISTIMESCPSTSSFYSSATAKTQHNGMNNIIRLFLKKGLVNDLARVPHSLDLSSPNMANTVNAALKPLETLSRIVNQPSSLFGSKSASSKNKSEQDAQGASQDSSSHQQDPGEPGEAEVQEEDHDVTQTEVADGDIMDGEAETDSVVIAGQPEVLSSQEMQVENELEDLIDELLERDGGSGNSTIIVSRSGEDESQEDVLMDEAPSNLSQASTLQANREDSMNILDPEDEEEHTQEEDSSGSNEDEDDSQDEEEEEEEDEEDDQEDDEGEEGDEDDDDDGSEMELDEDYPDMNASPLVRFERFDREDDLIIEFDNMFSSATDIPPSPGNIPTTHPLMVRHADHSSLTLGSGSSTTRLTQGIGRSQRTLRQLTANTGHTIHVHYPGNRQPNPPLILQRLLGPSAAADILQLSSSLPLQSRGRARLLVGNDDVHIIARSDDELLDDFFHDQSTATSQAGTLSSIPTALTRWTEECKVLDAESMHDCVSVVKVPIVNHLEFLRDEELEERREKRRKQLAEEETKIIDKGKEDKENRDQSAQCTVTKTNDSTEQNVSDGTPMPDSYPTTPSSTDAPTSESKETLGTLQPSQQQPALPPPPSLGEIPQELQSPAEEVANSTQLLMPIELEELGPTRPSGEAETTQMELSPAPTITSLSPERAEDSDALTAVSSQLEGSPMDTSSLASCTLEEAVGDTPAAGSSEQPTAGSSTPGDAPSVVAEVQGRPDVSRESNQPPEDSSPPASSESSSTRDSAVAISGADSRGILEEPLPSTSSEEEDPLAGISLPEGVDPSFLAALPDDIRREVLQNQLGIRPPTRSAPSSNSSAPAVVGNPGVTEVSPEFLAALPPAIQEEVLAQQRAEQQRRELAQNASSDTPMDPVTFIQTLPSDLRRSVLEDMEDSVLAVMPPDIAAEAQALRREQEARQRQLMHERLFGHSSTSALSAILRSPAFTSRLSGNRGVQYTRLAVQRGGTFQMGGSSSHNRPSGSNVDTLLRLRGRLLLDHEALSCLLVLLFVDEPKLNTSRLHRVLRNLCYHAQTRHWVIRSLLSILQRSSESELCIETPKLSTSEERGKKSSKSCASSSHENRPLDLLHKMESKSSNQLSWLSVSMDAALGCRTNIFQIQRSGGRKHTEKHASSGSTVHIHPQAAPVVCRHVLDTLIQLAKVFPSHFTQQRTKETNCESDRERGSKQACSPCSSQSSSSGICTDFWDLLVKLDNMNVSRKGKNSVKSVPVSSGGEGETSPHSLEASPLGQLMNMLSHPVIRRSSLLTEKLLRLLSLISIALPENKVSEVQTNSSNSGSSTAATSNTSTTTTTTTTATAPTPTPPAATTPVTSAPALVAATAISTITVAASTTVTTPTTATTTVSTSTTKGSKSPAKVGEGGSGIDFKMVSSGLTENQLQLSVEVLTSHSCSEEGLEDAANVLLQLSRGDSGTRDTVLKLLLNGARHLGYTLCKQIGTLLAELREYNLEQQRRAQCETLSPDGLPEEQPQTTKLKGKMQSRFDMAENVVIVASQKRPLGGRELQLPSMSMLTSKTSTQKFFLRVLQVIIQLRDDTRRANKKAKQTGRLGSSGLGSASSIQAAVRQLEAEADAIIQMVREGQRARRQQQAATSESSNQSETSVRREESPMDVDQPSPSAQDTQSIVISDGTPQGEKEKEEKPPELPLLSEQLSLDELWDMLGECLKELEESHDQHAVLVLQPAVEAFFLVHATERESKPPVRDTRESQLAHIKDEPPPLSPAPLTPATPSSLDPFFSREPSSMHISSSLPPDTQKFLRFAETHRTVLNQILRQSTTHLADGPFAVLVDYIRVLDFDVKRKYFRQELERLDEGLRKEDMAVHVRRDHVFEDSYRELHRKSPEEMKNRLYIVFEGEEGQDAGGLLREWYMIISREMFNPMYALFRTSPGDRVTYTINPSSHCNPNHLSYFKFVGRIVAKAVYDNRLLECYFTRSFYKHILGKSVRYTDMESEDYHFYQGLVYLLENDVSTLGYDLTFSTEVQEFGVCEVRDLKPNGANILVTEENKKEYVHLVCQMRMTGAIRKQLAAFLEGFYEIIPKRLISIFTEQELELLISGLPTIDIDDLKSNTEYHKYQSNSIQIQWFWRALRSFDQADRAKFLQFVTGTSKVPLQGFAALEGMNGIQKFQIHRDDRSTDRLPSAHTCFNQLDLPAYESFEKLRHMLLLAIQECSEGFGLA

[4] = target: phosphatidylinositol 3,4,5-trisphosphate Rac exchange factor 2 (PREX2) (UniProt Q70Z35); experiment: co-IP and immunoblot, Huh7-GNMT stable cells (FIG. 1A)
[5] = target: phosphatidylinositol 3,4,5-trisphosphate Rac exchange factor 2 (PREX2) (UniProt Q70Z35); experiment: reciprocal co-IP, lysates of HEK293T cells co-transfected with PREX2 and GNMT plasmids

binding [1]: binds
binding [2]: binds
Molecule: homologous to E6AP carboxyl terminus homologous protein 9 (HectH9) (from UniProt Q7TMY8 1-4377 at identity 1.00)) (enzyme)

binding [3]: binds
B1: purified GST-GNMT (enzyme, not shown: a dimerising Fc or GST)
chain: MVDSVYRTRSLGVAAEGLPDQYADGEAARVWQLYIGDTRSRTAEYKAWLLGLLRQHGCQRVLDVACGTGVDSIMLVEEGFSVTSVDASDKMLKYALKERWNRRHEPAFDKWVIEEANWMTLDKDVPQSAEGGFDAVICLGNSFAHLPDCKGDQSEHRLALKNIASMVRAGGLLVIDHRNYDHILSTGCAPPGKNIYYKSDLTKDVTTSVLIVNNKAHMVTLDYTVQVPGAGQDGSPGLSKFRLSYYPHCLASFTELLQAAFGGKCQHSVLGDFKPYKPGQTYIPCYFIHVLKRTD

binding [4]: binds
binding [5]: binds
B2: glycine-N-methyltransferase (GNMT) (enzyme)
chain: VDSVYRTRSLGVAAEGLPDQYADGEAARVWQLYIGDTRSRTAEYKAWLLGLLRQHGCQRVLDVACGTGVDSIMLVEEGFSVTSVDASDKMLKYALKERWNRRHEPAFDKWVIEEANWMTLDKDVPQSAEGGFDAVICLGNSFAHLPDCKGDQSEHRLALKNIASMVRAGGLLVIDHRNYDHILSTGCAPPGKNIYYKSDLTKDVTTSVLIVNNKAHMVTLDYTVQVPGAGQDGSPGLSKFRLSYYPHCLASFTELLQAAFGGKCQHSVLGDFKPYKPGQTYIPCYFIHVLKRTD
